PubChem BioAssay AID1224828 – NIAID | 2016
Assay: 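Knock-downs that increase or decrease LPS-induced p65 nuclear translocation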 (primary screen). Cell system: mouse RAW264.7 G9 macrophage reporter cells (GFP-p65, Tnf promoter-mCherry). Knock-down reagent: siRNA pool against mouse genes, 100 nM. Duration: 2 days siRNA transfection, then 40 min LPS before fixation. Treatment: LPS (Salmonella minnesota R595) at 10 ng/ml. Measurement: 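Imaged p65 nuclear translocation ratio, normalised to the plate median, converted to robust z-scores and averaged across two replicates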. Reading the numbers: p65 translocation robust z-score: higher = more nuclear NF-kappaB p65 after LPS than the plate median; nuclear/cytoplasmic p65 ratio: higher = more nuclear NF-kappaB p65. Call rule: 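Active if robust z is above 3.3 (negative regulators) or below -1.56, the Tlr4 control median (positive regulators); activity score 50 or more; control wells not called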. Meaning of the calls: active = hit (p65 shift raised or lowered); inactive = no clear change.
The deposit covers about 17,000 reagents; this is a random part of them. Of all reagents, 762 (4.5%) were called active. 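Active calls include both raised and lowered p65 entry, mostly lowered; wells with fewer than 50 cells lack a z-score.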 Raw values vary from plate to plate and are shown uncorrected.

For Plxdc2, how do the results read?
p65 translocation robust z-score: 0.9; nuclear/cytoplasmic p65 ratio, rep 1: 1.32; nuclear/cytoplasmic p65 ratio, rep 2: 1.32; low cell count flag: enough cells to score; outcome: inactive

With Ppp2cb, what was measured?
p65 translocation robust z-score: 2.04; nuclear/cytoplasmic p65 ratio, rep 1: 1.73; nuclear/cytoplasmic p65 ratio, rep 2: 1.63; low cell count flag: enough cells to score; outcome: inactive

For Marco, what was measured?
p65 translocation robust z-score: -0.41; nuclear/cytoplasmic p65 ratio, rep 1: 1.43; nuclear/cytoplasmic p65 ratio, rep 2: 1.25; low cell count flag: enough cells to score; outcome: inactive

What is on record for Or4p19?
p65 translocation robust z-score: -0.96; nuclear/cytoplasmic p65 ratio, rep 1: 1.6; nuclear/cytoplasmic p65 ratio, rep 2: 1.36; low cell count flag: enough cells to score; outcome: inactive

For Vsig1, how do the results read?
p65 translocation robust z-score: 0.39; nuclear/cytoplasmic p65 ratio, rep 1: 1.31; nuclear/cytoplasmic p65 ratio, rep 2: 1.38; low cell count flag: enough cells to score; outcome: inactive

With Or8g37, what was measured?
p65 translocation robust z-score: 0.88; nuclear/cytoplasmic p65 ratio, rep 1: 1.57; nuclear/cytoplasmic p65 ratio, rep 2: 1.34; low cell count flag: enough cells to score; outcome: inactive

What did the screen give for Cfap126?
nuclear/cytoplasmic p65 ratio, rep 1: 1.59; nuclear/cytoplasmic p65 ratio, rep 2: 1.55; low cell count flag: fewer than 50 cells per well; well left out of scoring; outcome: inactive

How did the screen score Ccr10?
p65 translocation robust z-score: 1.12; nuclear/cytoplasmic p65 ratio, rep 1: 1.62; nuclear/cytoplasmic p65 ratio, rep 2: 1.79; low cell count flag: enough cells to score; outcome: inactive

For Cisd2, what does the deposit list?
nuclear/cytoplasmic p65 ratio, rep 1: 1.2; nuclear/cytoplasmic p65 ratio, rep 2: 1.35; low cell count flag: fewer than 50 cells per well; well left out of scoring; outcome: inactive

What did the screen give for Mblac1?
p65 translocation robust z-score: -0.54; nuclear/cytoplasmic p65 ratio, rep 1: 1.4; nuclear/cytoplasmic p65 ratio, rep 2: 1.41; low cell count flag: enough cells to score; outcome: inactive

For Polr1c, what was measured?
p65 translocation robust z-score: 0.63; nuclear/cytoplasmic p65 ratio, rep 1: 1.53; nuclear/cytoplasmic p65 ratio, rep 2: 1.27; low cell count flag: enough cells to score; outcome: inactive

For Hoxa7, what was measured?
p65 translocation robust z-score: -0.74; nuclear/cytoplasmic p65 ratio, rep 1: 1.25; nuclear/cytoplasmic p65 ratio, rep 2: 1.36; low cell count flag: enough cells to score; outcome: inactive

With Glp1r, how do the results read?
p65 translocation robust z-score: 1.17; nuclear/cytoplasmic p65 ratio, rep 1: 1.63; nuclear/cytoplasmic p65 ratio, rep 2: 1.79; low cell count flag: enough cells to score; outcome: inactive

What is on record for Ahctf1?
p65 translocation robust z-score: -1.2; nuclear/cytoplasmic p65 ratio, rep 1: 1.29; nuclear/cytoplasmic p65 ratio, rep 2: 1.23; low cell count flag: enough cells to score; outcome: inactive

For Or1e25, what does the deposit list?
p65 translocation robust z-score: -0.16; nuclear/cytoplasmic p65 ratio, rep 1: 1.58; nuclear/cytoplasmic p65 ratio, rep 2: 1.41; low cell count flag: enough cells to score; outcome: inactive

How did the screen score Babam2?
p65 translocation robust z-score: -0.57; nuclear/cytoplasmic p65 ratio, rep 1: 1.54; nuclear/cytoplasmic p65 ratio, rep 2: 1.52; low cell count flag: enough cells to score; outcome: inactive

What did the screen give for Ptprs?
p65 translocation robust z-score: 0.26; nuclear/cytoplasmic p65 ratio, rep 1: 1.55; nuclear/cytoplasmic p65 ratio, rep 2: 1.56; low cell count flag: enough cells to score; outcome: inactive

For Hoatz, what does the deposit list?
p65 translocation robust z-score: -1.05; nuclear/cytoplasmic p65 ratio, rep 1: 1.21; nuclear/cytoplasmic p65 ratio, rep 2: 1.08; low cell count flag: enough cells to score; outcome: inactive

For Zkscan1, how do the results read?
nuclear/cytoplasmic p65 ratio, rep 1: 1.2; nuclear/cytoplasmic p65 ratio, rep 2: 1.48; low cell count flag: fewer than 50 cells per well; well left out of scoring; outcome: inactive

What did the screen give for Icam2?
p65 translocation robust z-score: 2.08; nuclear/cytoplasmic p65 ratio, rep 1: 1.85; nuclear/cytoplasmic p65 ratio, rep 2: 1.51; low cell count flag: enough cells to score; outcome: inactive

What did the screen give for Krt1?
p65 translocation robust z-score: -0.11; nuclear/cytoplasmic p65 ratio, rep 1: 1.4; nuclear/cytoplasmic p65 ratio, rep 2: 1.42; low cell count flag: enough cells to score; outcome: inactive

Targets above whose gene name begins with M or m (2):
Marco: p65 translocation robust z-score = -0.41; nuclear/cytoplasmic p65 ratio, rep 1 = 1.43; nuclear/cytoplasmic p65 ratio, rep 2 = 1.25; low cell count flag = enough cells to score; outcome = inactive
Mblac1: p65 translocation robust z-score = -0.54; nuclear/cytoplasmic p65 ratio, rep 1 = 1.4; nuclear/cytoplasmic p65 ratio, rep 2 = 1.41; low cell count flag = enough cells to score; outcome = inactive
